The nature of the data set: Study I: HFD-fed mice, diet supplementation 12 weeks; body weight, food intake, relative organ weights.

As to `COc1cc(/C=C/C(=O)COC(=O)/C=C/c2ccc(O)c(OC)c2)ccc1O` [Calebin A], the Food intake is, setting by setting: (HFD + 0.25% Calebin A) 3.57 ± 0.47 g/mouse/day; (HFD + 1% Calebin A) 3.57 ± 0.40 g/mouse/day.

The record behind these values is patent publication US9737502B2, “Calebin A for hepatic steatosis” (SAMI LABS LIMITED, priority 2011, dated 2017).
